PubChem BioAssay AID1259354 (Paczesny and Yang Labs, IUPUI and University of Michigan, 2018)
Among all 78,000 compounds or so, about 1,800 (2.3%) were called active. The inconclusive results got no clear call from the source; some entries with a clear call stand among them for comparison. Rule as the data show it: active = inhibition above about 30%; inconclusive = mostly about 10% to 28%; inactive = weaker than that.

By UniProt entry, the sequences of proteins in these tests, tags left out. Where a name states a change or a piece, a line headed by the entry shows the natural chain unless it says otherwise.
UniProt Q01638: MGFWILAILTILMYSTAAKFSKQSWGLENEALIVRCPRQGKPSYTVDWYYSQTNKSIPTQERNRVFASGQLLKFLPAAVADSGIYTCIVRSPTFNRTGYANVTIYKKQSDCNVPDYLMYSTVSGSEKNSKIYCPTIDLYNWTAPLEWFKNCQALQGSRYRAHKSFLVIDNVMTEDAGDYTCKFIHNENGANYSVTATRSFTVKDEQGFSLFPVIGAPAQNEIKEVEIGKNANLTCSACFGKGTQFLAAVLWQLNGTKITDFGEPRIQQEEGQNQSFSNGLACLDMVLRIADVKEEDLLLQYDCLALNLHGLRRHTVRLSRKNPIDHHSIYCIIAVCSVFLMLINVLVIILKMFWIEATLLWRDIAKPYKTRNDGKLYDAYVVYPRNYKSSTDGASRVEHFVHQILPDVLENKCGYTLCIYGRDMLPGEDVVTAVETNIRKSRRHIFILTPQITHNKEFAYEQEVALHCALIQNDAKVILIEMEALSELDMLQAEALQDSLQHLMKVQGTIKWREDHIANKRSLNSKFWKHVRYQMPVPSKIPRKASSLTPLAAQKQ

These molecules were tested against Interleukin-1 receptor-like 1 (Homo sapiens) (UniProt Q01638) (assay: blocks human ST2 binding to IL-33, primary screen, biochemical, AlphaLISA (AID 1259354)). Settings: AlphaLISA ST2-Fc/biotin-IL-33 interaction, 1 h; at 17 µM, hits give high values.

Row | Structure (SMILES) | inhibition
1 | CCCC1COCCN1C(=O)c1cc(S(N)(=O)=O)ccc1F (centres undefined) | inconclusive: 16%
2 | NS(=O)(=O)c1ccc(CCNC(=O)C2=Cc3cc(Br)ccc3OC2)cc1 | inactive
3 | COc1cc2c(cc1OC)CN(C(=O)C[C@@H]1CCNC[C@@H]1Cc1cc(C(=O)O)on1)CC2 | inconclusive: 19%
4 | CC(O)Cc1nsc(NC(=O)c2cccc(Cl)c2)n1 (centres undefined) | inconclusive: 19%
5 | COc1ccc(C)cc1NS(=O)(=O)c1ccc(NS(=O)(=O)c2ccccc2)cc1 | inconclusive: 29%
6 | COc1ccc(N(C(C)=O)C2SC(=O)N(c3ccccc3)C2=O)cc1 (centres undefined) | inconclusive: 26%
7 | c1ccc(C2=Nc3ccccc3SC2)cc1 | inactive
8 | Cc1ccc(-n2c(-c3ccco3)nc3c(cnn3-c3ccc(F)cc3)c2=O)cc1C | inconclusive: 12%
9 | CC(C)(C)NC(=O)CSc1nc2ccccc2s1 | inconclusive: 24%
10 | COCCNC(=O)C(NC(=O)C1CCCCC1)C(C)C (centres undefined) | inconclusive: 22%
11 | Cc1nccn1-c1nc2nonc2nc1Nc1cccc(Br)c1 | inconclusive: 15%
12 | CC(C)n1c(=N)c(C(=O)NCC2CCCO2)cc2c(=O)n3ccccc3nc21 (centres undefined) | inconclusive: 12%
13 | COC(=O)c1ccc(Cn2ccnc2-c2nccn2C(C)C)cc1 | inconclusive: 10%
14 | Cc1ccc(CCNC(=O)CC2C(=O)N(C)C(=O)N2C)cc1C (centres undefined) | inactive
15 | Cc1cccc(NCN2C(=O)S/C(=C\c3cccc(F)c3)C2=O)c1 | inconclusive: 15%
16 | Cc1ccc(N2CN=c3s/c(=C\c4ccco4)c(=O)n3C2)cc1 | active: 34%
17 | COc1cccc(C2CC(c3cccs3)=NN2C(=O)CSC2CCCCC2)c1OC (centres undefined) | active: 44%
18 | COc1cc(-c2cccc3c2CCNC3)cc2cc(C(=O)O)oc12 | inactive
19 | COc1ccc(/C=c2\sc3n(c2=O)CN(c2ccc([N+](=O)[O-])cc2)CN=3)cc1 | inconclusive: 18%
20 | Nc1nc(N)c2nc(CNc3ccc(C(=O)NC(CCC(=O)O)C(=O)O)cc3)cnc2n1 (centres undefined) | inconclusive: 19%
21 | Cc1noc([C@@H]2C[C@H](NC(=O)Nc3cccc(C#N)c3)CN2C)n1 | inconclusive: 22%
22 | O=C(CN1C(=O)COCC1=O)NCC1CCN(C2CCCC2)C1 (centres undefined) | inactive
23 | O=c1c2cnn(-c3ccc(Cl)cc3)c2ncn1Cc1cccc(F)c1 | inconclusive: 10%
24 | OC1CCN(Cc2ccc(Br)cc2)CC1 | inactive

Row | Structure (SMILES) | inhibition
25 | Cc1nn(C)cc1-c1ccnc(NCc2ccccc2-n2ccnc2)n1 | inactive
26 | Cc1cnc(C(=O)N2CC(=O)N(CCc3ccccc3)CC(OCc3cccc(F)c3)C2)[nH]1 (centres undefined) | inactive
27 | O=C(CSc1ncccn1)Nc1ccc([N+](=O)[O-])cn1 | inconclusive: 20%
28 | CCN1C(=O)N(C2Cc3ccccc3C2)C(=O)C12CCN(C1CCOCC1)CC2 | inactive
29 | Cc1nccn1-c1c2c(c(C#N)c3nc4ccccc4n13)CCC2 | inactive
30 | CC(C)Oc1ccc(C2CC(=O)NNC2=O)cc1 (centres undefined) | inactive
31 | COc1ccc(C2CC(c3ccc(Br)cc3)=NN2C(=O)CCCC(=O)O)cc1OC (centres undefined) | inconclusive: 21%
32 | Brc1ccc2[nH]c3c(c2c1)CCCC3NCc1ccccc1 (centres undefined) | inconclusive: 24%
33 | CN(CCSc1ccccc1)Cc1cc2n(n1)CCNC2 | inactive
34 | COc1ccc(C(=O)Nc2ccc(Cl)c(-c3nc4ncccc4o3)c2)cc1OC | inactive
35 | CN=C(NS(=O)(=O)c1cc(C)ccc1C)c1ccccc1 | inactive
36 | C=CCN(Cc1ccccc1Cl)C(=O)c1cnn(CC)c1 | inconclusive: 21%
37 | CC(C)c1nnsc1CNC(=O)c1ccc(C#CC(C)(C)O)o1 | inconclusive: 13%
38 | CCNC(=O)O[C@@H]1CO[C@H]2[C@@H]1OC[C@@H]2Nc1nccc(-c2ccc(-c3ccccc3)cc2)n1 | inconclusive: 17%
39 | CCOC(=O)c1c(NC(=O)CCOc2ccccc2)sc2c1CCC(C)C2 (centres undefined) | inactive
40 | COc1cc(CN2CCN(c3ccccn3)CC2)cc(OC)c1OC | inactive
41 | COc1ccc2nc(N3C(=O)c4ccc(C(=O)O)cc4C3=O)sc2c1 | inconclusive: 20%
42 | Cc1ccc2oc(-c3ccoc3)cc(=O)c2c1 | inactive
43 | CCN(CC)c1ccc(C2C(C(=O)OC(C)C)=C(C)NC3=C2C(=O)C(C(=O)OC)C(C)C3)cc1 (centres undefined) | inconclusive: 27%
44 | Cc1ccccc1-c1noc(CCC(=O)NCc2cc(C(C)(C)C)n[nH]2)n1 | inconclusive: 11%
45 | Cn1c(N2CCCCC2)nc2c1c(=O)n(Cc1cccc(Br)c1)c(=O)n2C | inconclusive: 17%
46 | COc1ccc(Cl)cc1NC(=O)NCCc1nc2cccnc2n1-c1ccccc1 | inactive
47 | Cc1ccc(F)c(C(=O)N2CCC(Cc3cccc(C(N)=O)c3)C2)c1Cl (centres undefined) | inconclusive: 14%
48 | CCCc1ccc(OCC(=O)Nc2ccc(C)c([N+](=O)[O-])c2)cc1 | inconclusive: 28%

Structures listed so far that have a thiophene ring, fused or not:
Row | Structure (SMILES) | inhibition
17 | COc1cccc(C2CC(c3cccs3)=NN2C(=O)CSC2CCCCC2)c1OC (centres undefined) | active: 44%
39 | CCOC(=O)c1c(NC(=O)CCOc2ccccc2)sc2c1CCC(C)C2 (centres undefined) | inactive

Six compounds picked at random from the list so far:
Row | Structure (SMILES) | inhibition
48 | CCCc1ccc(OCC(=O)Nc2ccc(C)c([N+](=O)[O-])c2)cc1 | inconclusive: 28%
42 | Cc1ccc2oc(-c3ccoc3)cc(=O)c2c1 | inactive
31 | COc1ccc(C2CC(c3ccc(Br)cc3)=NN2C(=O)CCCC(=O)O)cc1OC (centres undefined) | inconclusive: 21%
37 | CC(C)c1nnsc1CNC(=O)c1ccc(C#CC(C)(C)O)o1 | inconclusive: 13%
26 | Cc1cnc(C(=O)N2CC(=O)N(CCc3ccccc3)CC(OCc3cccc(F)c3)C2)[nH]1 (centres undefined) | inactive
25 | Cc1nn(C)cc1-c1ccnc(NCc2ccccc2-n2ccnc2)n1 | inactive

(more compounds)

Row | Structure (SMILES) | inhibition
49 | COc1ccc(-n2ncc3c(N4CCOCC4)ncnc32)cc1 | inconclusive: 11%
50 | CC(=O)Nc1ccc(NC(=O)c2cccc(I)c2)cc1 | inconclusive: 11%
51 | O[C@H]1[C@H](NCc2ccccc2)[C@H]2CO[C@H](O2)[C@@H]1N1CCC(Cc2ccccc2)CC1 | inconclusive: 12%
52 | N#Cc1c(N)nc(SCC(=O)O)c(C#N)c1-c1ccc(O)cc1 | inconclusive: 11%
53 | N#Cc1c(N)sc2c1CCN(Cc1ccccc1)C2 | inconclusive: 28%
54 | CC1=C(C(=O)OC2CCCC2)C(c2ccc(O)cc2)NC(=O)N1 (centres undefined) | inactive
55 | O=[N+]([O-])c1cccc(C=Nc2cccc(O)c2)c1O | inconclusive: 27%
56 | Cn1ccnc1SCC(=O)Nc1ccc2nc(SCc3ccccc3F)sc2c1 | inconclusive: 12%
57 | COC(=O)c1cc(OC)cc(C(=O)Nc2cnc3n2CCCC3)c1 | inconclusive: 28%
58 | O=C(Nc1c(F)c(F)c(F)c(F)c1F)c1ccco1 | inconclusive: 12%
59 | O=C1Nc2cc(Cl)c(Cl)cc2N(O)N1c1ccccc1F | inactive
60 | Cc1[nH]c2ccccc2c1C(C[N+](=O)[O-])c1cccs1 (centres undefined) | inconclusive: 14%
61 | O=C(CCc1ccccc1)Nc1nnc(SCc2nc3ccccc3[nH]2)s1 | inconclusive: 16%
62 | COc1ccccc1C(=O)Nc1ccc(S(N)=O)cc1 (centres undefined) | inactive
63 | Cc1nc2ccccc2nc1SC(C(=O)O)c1ccccc1 (centres undefined) | inconclusive: 11%
64 | Cc1ccc(Cl)cc1NC(=O)C(C)N(c1ccccc1)S(C)(=O)=O (centres undefined) | inconclusive: 12%
65 | Cn1c(=O)cc(SCC(=O)Nc2cccc(Cl)c2)c2ccc(Cl)cc21 | inactive
66 | O=C(CS(=O)(=O)c1cn(Cc2ccccc2Cl)c2ccccc12)Nc1nccs1 | inconclusive: 27%
67 | COc1cc([N+](=O)[O-])ccc1N1CCCC1 | active: 38%
68 | Cc1cc(Oc2cc(C#N)c(C#N)cc2[N+](=O)[O-])cc(C)c1Cl | active: 39%
69 | C=CCCCCC(=O)Nc1ccc(I)cc1 | inactive
70 | N#Cc1ccccc1Cn1c(=O)n(-c2ccc(F)cc2F)c(=O)c2sccc21 | inconclusive: 14%
71 | COc1ccc2c(-c3ccccc3)cc3nnnn3c2c1 | inconclusive: 14%
72 | Cc1ccc2cccc(NC3OC(=O)c4ccccc43)c2n1 (centres undefined) | inconclusive: 26%

Row | Structure (SMILES) | inhibition
73 | CCOC(=O)C1(C/C=C/c2ccccc2)CCCN(C(=O)c2cc(C)[nH]n2)C1 (centres undefined) | inconclusive: 11%
74 | O=C(c1ccco1)N1CCN=C1SCc1ccccc1 | inconclusive: 11%
75 | O=C(C1CC1)N1CCc2cc(S(=O)(=O)NCc3ccccc3)ccc21 | inactive
76 | C=C1CC[C@@]2(OC1)O[C@H]1CC3C4CC=C5C[C@@H](O[C@@H]6O[C@@H](C)[C@H](O)[C@@H](O)[C@H]6O)C[C@@H](O[C@@H]6O[C@H](C)[C@H](O)[C@H](O)[C@H]6O[C@@H]6O[C@@H](C)[C@H](O)[C@@H](O)[C@H]6O)[C@]5(C)C4CC[C@]3(C)[C@H]1[C@@H]2C (some centres undefined) | inconclusive: 23%
77 | COc1ccc(Cl)cc1NC(=O)c1cn(C)c(=O)c2cc(OC)c(OC)cc12 | inactive
78 | CN1C[C@@H](NC(=O)Nc2ccccc2)C[C@H]1c1nc(-c2ccccc2)no1 | inactive
79 | CCOc1ccccc1/C=c1/sc2nc3ccccc3n2c1=O | inconclusive: 19%
80 | Cc1cc2cccc(C(=O)NCC3(O)CCCNCC3)c2o1 (centres undefined) | inactive
81 | CCc1ccc2[nH]cc(C(=O)c3ccc(Cl)cc3)c(=O)c2c1 | inactive
82 | COCc1cc(C)nc2sc(C(=O)Nc3cc(Br)cc4cccnc34)c(N)c12 | inconclusive: 10%
83 | Cc1ccc(Nc2nc(-c3nnc(-c4cccc(C)c4)o3)nc3ccccc23)cc1 | inconclusive: 10%
84 | COCCN1CCN(C(=O)CC2C(=O)NCCN2Cc2cccc(OC)c2OC)CC1 (centres undefined) | inconclusive: 14%
85 | Cc1ccc(NC(C)(C(=O)N2CCC(N)CC2)c2ccccc2)cc1 (centres undefined) | inconclusive: 14%
86 | Cn1cnc2c(NCc3ccccc3)nc(NCCO)nc21 | inconclusive: 17%
87 | Cc1ccc(Nc2nc(-c3ccc(F)cc3)cs2)cc1 | inconclusive: 17%
88 | c1ccc(-c2ccc3ncccc3c2)c(CN2CCOCC2)c1 | inconclusive: 17%
89 | CCCS(=O)(=O)c1c(S(=O)(=O)CCC)c2ccccn2c1C(=O)c1ccc(OC)cc1 | inconclusive: 14%
90 | CC1=C[C@@H](CN2CCN(CCO)CC2)[C@H](C(C)C)C[C@H]1Cc1nnc(-c2cccnc2)o1 | inactive
91 | CN1CC2(CCCN(Cc3nnc(-c4ccco4)o3)CC2)OC1=O (centres undefined) | inactive
92 | CC1=CC(=NS(=O)(=O)c2ccc([N+](=O)[O-])cc2)C=C(C)C1=O | inactive
93 | O=C(c1c(Cl)cccc1Cl)N1CCN(c2ccccc2F)CC1 | inconclusive: 21%
94 | COc1ccc(C2=NN(/C(C)=C/C(C)=O)C(c3cccc([N+](=O)[O-])c3)C2)cc1 (centres undefined) | inconclusive: 26%
